# Experimental data reported in WO2022244854A1.
# Results are given in words; binding and its absence hold for the method and conditions named. Some results given as binding are weak or reduced against the parent protein; the word gives no strength.
# T1: CD206 antigen (purified extracellular region of mouse CD206, expressed in FreeStyle 293-F cells) (mouse) (UniProt Q61830)
# T1 sequence (looked up): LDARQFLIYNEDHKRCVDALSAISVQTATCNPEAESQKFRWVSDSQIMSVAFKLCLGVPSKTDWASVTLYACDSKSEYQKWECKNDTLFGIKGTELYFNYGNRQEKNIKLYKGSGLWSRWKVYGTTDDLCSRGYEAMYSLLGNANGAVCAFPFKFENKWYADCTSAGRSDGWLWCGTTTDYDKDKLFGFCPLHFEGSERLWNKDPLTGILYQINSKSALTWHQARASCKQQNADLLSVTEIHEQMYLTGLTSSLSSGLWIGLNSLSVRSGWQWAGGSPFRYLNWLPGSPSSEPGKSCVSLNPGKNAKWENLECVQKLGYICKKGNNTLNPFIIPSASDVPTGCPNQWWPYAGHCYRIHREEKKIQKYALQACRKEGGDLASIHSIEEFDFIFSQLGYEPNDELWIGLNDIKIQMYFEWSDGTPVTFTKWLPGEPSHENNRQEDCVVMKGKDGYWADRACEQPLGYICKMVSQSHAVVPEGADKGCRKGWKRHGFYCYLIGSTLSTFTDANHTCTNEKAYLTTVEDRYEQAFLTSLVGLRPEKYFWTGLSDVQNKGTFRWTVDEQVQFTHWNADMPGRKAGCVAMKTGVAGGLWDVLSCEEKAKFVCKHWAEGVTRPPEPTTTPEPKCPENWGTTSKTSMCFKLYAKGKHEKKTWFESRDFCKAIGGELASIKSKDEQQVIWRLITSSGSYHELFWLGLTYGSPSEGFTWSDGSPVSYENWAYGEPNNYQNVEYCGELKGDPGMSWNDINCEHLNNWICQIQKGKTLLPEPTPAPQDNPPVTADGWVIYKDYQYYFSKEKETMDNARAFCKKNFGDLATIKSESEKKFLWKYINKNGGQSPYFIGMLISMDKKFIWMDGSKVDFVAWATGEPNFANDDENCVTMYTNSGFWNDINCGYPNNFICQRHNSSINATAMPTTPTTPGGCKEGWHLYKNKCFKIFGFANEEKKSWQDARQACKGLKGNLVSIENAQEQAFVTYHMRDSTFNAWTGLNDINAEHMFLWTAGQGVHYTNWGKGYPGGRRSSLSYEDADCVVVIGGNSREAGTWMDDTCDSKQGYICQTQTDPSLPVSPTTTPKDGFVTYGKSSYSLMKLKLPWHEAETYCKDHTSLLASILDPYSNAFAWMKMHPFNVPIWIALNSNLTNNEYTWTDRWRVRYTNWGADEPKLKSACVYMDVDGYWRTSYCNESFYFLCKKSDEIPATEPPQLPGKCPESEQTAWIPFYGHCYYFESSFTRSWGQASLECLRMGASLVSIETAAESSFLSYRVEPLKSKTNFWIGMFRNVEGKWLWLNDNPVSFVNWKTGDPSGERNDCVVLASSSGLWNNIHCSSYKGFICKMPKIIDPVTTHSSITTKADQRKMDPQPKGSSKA
# Molecular target: T1, CD206 antigen (purified extracellular region of mouse CD206, expressed in FreeStyle 293-F cells) (mouse)
# Assay: ELISA, CD206 antigen immobilised on the plate
row,binding,Binder
1,binds,"anti-CD206 antibody (No.72) (antibody, V domains shown) VH: QVQLQQPGAELVRPGSSVKLSCKASGYTFTTYWMHWVKQRPIQGLEWIGNIDPSDSETHYNQKFKDKATLTVDKSSSTAYMQLNSLTSEDSAVYYCARGDGYYVYFAYWGQGTTLTVSS VL: EIVLTQSPALMAASPGEKVTITCSVSSSISSSNLHWYQQKSETSPKPWIYATSNLASGVPVRFSGSGSGTSYSLTISSMAAEDAATYFCQQWSSFPLTFGAGTKLELK"
2,binds,"anti-CD206 antibody (No.83) (antibody, V domains shown) VH: QVQLLQSGAELVRPGTAVKMSCKASEYTFTNYWIGWARQRPGHGLEWIGDIYPGGGYINYNEKFKGKATLTADKSSSTVYMQFSSLTSEDSAIYYCARGGSNYVGHFDYWGQGTTLTVSS VL: DIQMTQTTSSLSASLGDRVTISCRASQDISNYLNWYQQKPDGTVKLLIYYTSILHSRVPSRFSGSGSGTDYSLTISNLEQEDIATYFCQHGHTLPWTFGGGTKLEIK"
3,binds,"anti-CD206 antibody (No.54) (antibody, V domains shown) VH: EVQLVESGGGLVQPKGSLKLSCAASGFSFNTYTMNWVRQAPGKGLEWVARIRSKSNNYETYYADSVKDRFTISRDDSESMLYLQMNNLKTEDTAMYYCVSPDSDSWFAYWGQGTLVTVSA VL: DIQMNQSPSSLSASLGDTITIACHASQNINVWLSWYQQKPGNIPKLLIYKASNLHTGVPSRFSGSGSGTGFTLTISSLQPEDIATYYCQQGQSYPLTFGGGTKLEIK"

# More lines, now with the values behind:
row,Binder,binding
1,"anti-CD206 antibody (No.27) (antibody, V domains shown) VH: QVQLQQPGAELVKPRASVKLSCRASGYIFISYWMQWVKQRPGQGLEWIGEIDPSDSYINYNQKFKGKASLTVDTSSNTAYMQLSSLTSEDSAVYYCATGDMGDDFYAMDYWGQGTSVTVSS VL: DIVMNQDELSNPVTSGESVSISCRSSKSLLYKDGKTYLNWFLQRPGQSPQLLIYLMSTRASGVSDRFSGSGSGTDFTLEISRVKAEDVGVYYCQQLVEYPFTFGGGTKLEIK",binds
2,"anti-CD206 antibody (No.44) (antibody, V domains shown) VH: QVQLQQSGAELVRPGTSVKVSCKASGYAFTDYLIEWVKQRPGQGLEWIGVINPGRGGTNYNEKFKGKATLTADKSSSTAYMQLSSLTSEDSAVYFCARYYGRSFGYFDVWGTGTTVTVSS VL: DIQMTQSPASQSASLGESVTITCLASQTIGTWLAWYQQKPGKSPQLLIYAATSLADGVPSRFSGSGSGTKFSFKISSLQAEDFVSYYCQQLYSPPLTFGAGTKLELK",binds
3,"anti-CD206 antibody (No.35) (antibody, V domains shown) VH: QVQLQQPGAELVKPGASVKVSCKASGYTFTTYWMHWVKQRPGQGLEWIGRIHPSDSDSNYNQKFKGKATLTVDKSSSTAYMQLSSLTSEDSAVYYCAIGRGFAYWGQGTLVTVSA VL: DIVLTQSPASLAVSLGQRAAISCRASESVDNYGNSFMHWYQQKPGQPPKLLIYRASNLESGIPARFSGSGSRTDFTLTINPVEADDVATYYCQQGNEDPYTFGGGTKLEIK",binds
4,"anti-CD206 antibody (No.10) (antibody, V domains shown) VH: QVQLQQPGAELVRPGSSVKLSCKASGYTFISYWMDWVKQRPGQGLEWIGNIFPSDSETHYNQKFRDKATLTVDKSSSTASIHLSSLTSEDSAVYYCGRRDSSGWIDYWGQGTTLTVSS VL: DIQMTQTTSSLSASLGDRVTISCRASQDISNYLNWYQQKPDGTVKLLIYYTSRFHSGVPSRFSGSGSGTDYSLTIHNVEQEDIATYFCQQSSMLPFTFGSGTKLEMK",binds
5,"anti-CD206 antibody (No.47) (antibody, V domains shown) VH: QVQLQQPGAELVRPGSSVKLSCKASGYTFTSYWMDWVKQRPGQGLEWIGNIYPSDSETHYNQKFKDRATLTVDKSSTTAYMQLSSLTSEDSAVYYCTRRDSSGWIDYWGQGTTLTVSS VL: DIQMTQTTSSLSASLGDRVTISCRASQDISNYLNWYQQKPDGTVKLLIYYTSRLHSGVPSRFSGRGSGTDYSLTISNLEQEDIATYFCQQGNTLPFTFGSGTQLEIK",binds
